Laboratory results as given in patent US20100216853A1.
No constants are given. Whether binding was seen depends on the method and setting. Binding seen in cells or lysates may run through a third protein. Some entries that bind do so weakly or less than the wild type.

The chains behind the UniProt entries cited, without tags or fusion partners. Where a name states a change or a piece, a line headed by the entry shows the natural chain unless it says otherwise.
UniProt Q09472: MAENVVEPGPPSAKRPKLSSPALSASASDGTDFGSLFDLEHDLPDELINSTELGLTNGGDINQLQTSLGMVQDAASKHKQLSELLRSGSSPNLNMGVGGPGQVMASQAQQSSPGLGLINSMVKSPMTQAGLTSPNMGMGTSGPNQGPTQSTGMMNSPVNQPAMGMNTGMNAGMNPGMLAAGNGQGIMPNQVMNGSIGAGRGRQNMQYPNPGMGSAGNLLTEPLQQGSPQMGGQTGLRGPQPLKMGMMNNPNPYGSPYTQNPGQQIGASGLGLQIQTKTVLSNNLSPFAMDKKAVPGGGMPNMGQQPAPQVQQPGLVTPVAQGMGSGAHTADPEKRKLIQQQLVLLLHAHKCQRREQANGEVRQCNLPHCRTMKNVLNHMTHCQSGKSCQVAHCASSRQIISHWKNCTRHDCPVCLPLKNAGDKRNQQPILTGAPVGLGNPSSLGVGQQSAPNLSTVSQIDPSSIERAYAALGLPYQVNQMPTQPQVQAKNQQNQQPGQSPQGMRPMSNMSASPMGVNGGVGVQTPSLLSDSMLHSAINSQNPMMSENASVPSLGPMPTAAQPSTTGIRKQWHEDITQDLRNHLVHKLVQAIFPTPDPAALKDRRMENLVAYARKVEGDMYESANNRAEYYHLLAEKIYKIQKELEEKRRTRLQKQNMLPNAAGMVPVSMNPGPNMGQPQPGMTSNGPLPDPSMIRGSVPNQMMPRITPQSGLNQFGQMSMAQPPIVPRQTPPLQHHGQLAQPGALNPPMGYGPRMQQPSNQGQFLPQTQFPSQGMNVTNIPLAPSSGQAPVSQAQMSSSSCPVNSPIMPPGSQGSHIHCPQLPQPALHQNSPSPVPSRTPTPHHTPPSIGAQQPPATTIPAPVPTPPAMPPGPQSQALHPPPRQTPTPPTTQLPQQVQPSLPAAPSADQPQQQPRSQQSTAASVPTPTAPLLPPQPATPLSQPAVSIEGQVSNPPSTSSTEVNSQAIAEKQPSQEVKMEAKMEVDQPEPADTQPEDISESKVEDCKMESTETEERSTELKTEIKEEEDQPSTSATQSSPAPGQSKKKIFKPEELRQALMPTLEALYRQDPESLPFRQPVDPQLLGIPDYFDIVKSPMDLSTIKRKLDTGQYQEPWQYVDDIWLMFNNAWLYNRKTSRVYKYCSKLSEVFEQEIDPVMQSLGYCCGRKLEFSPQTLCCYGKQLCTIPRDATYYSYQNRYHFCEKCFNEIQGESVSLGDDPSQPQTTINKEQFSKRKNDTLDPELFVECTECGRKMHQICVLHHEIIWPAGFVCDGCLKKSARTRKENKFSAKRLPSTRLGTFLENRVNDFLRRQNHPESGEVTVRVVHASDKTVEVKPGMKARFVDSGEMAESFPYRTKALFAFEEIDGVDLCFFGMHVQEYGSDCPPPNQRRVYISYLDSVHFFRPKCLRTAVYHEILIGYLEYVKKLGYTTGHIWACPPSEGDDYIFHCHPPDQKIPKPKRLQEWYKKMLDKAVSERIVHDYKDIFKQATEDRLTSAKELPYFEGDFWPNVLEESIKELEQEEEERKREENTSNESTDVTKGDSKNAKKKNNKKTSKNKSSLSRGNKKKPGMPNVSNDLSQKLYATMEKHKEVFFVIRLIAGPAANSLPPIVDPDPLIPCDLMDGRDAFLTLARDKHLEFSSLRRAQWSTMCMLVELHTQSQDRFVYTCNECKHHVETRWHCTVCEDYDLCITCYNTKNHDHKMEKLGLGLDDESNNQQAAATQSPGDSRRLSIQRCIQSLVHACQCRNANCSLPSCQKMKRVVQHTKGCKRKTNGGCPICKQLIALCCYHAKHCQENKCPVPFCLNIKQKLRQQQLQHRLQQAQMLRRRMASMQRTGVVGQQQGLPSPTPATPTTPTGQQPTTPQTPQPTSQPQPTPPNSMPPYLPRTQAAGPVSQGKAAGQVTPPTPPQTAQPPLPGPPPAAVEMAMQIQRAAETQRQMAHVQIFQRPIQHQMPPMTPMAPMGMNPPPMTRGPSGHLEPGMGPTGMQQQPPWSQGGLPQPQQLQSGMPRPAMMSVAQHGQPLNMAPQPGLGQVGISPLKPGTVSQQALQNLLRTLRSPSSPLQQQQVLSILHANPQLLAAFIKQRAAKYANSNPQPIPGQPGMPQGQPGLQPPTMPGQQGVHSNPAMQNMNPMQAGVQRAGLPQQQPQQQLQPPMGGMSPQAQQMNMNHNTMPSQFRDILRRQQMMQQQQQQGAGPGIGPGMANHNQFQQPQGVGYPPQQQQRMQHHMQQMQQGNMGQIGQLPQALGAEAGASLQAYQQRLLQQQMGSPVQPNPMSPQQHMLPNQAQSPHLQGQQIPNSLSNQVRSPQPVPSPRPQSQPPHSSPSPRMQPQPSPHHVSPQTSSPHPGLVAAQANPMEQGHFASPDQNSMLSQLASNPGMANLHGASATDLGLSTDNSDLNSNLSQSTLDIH

Tests used:
[1] = molecular target: p300 HAT domain C-terminal subdomain (about 11 kDa protease-resistant fragment) (human) (UniProt Q09472); assay: co-purification through two chromatographic separations
[2] = molecular target: p300 HAT domain C-terminal subdomain (about 11 kDa protease-resistant fragment) (human) (UniProt Q09472); assay: co-purification and crystal structure, retold in Example 8
[3] = molecular target: p300 HAT domain C-terminal subdomain (about 11 kDa protease-resistant fragment) (human) (UniProt Q09472); assay: co-purification and crystal structure, with Lys-CoA
[4] = molecular target: p300 HAT domain C-terminal subdomain (about 11 kDa protease-resistant fragment) (human) (UniProt Q09472); assay: co-purification of the heterodimeric p300 HAT complex in the presence of Lys-CoA

Measured: binding

p300 HAT domain N-terminal subdomain (about 28 kDa protease-resistant fragment) (from UniProt Q09472 1287-1522) (enzyme)
binds: [1] | [2] | [3] | [4]
